# Reference: patent US8299030 (dated 2012)
# Experiment: general procedure: Fmoc solid-phase peptide synthesis; Rink Amide AM resin; HBTU (HATU for PEG unit)
# Settings: whole synthesis, scale 0.25 mmol
row,Substance,crude mass [mg]
1,ClCH2CO-Lys-Cys(tBu)-Arg-Gly-Asp-Cys(tBu)-Phe-Cys-(PEG)n-NH2 where n=1,322
2,ClCH2CO-Lys-Cys(tBu)-Arg-Gly-Asp-Cys(tBu)-Phe-Cys-NH2,295
